Hit rate of the full screen: of about 31,000 sequences, about 1,400 (4.5%) were called active.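 The calls were made as follows: active = median seed-adjusted z-score above 1 or below -1; inactive = the rest.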 The list shows a part of the results.
Assay: Novel Modifiers of Survival Motor Neuron (SMN) Protein: Gene Identification via Genome-wide siRNA Screen;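 also: luminescence tracks full-length SMN protein made from the SMN2 reporter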
Conditions: HEK293T SMN2-luciferase reporter, siRNA knockdown, 72 h; actives lie on both sides
Summary of the method: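 Genome-wide siRNA screen (10418 genes, 3 siRNAs each, 1 pmol per well) by reverse transfection in HEK293T cells stably carrying an SMN2-luciferase reporter; luminescence after 72 hours, normalized to negative-control siRNA, log10-transformed, MAD-scored.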
With CAAGAGCCCUUGGGACAUATT against LIPI the median seed-adjusted z-score was inactive: 0.65. For GCCUAGGUCUCUUAGAUGATT against ATF4, the median seed-adjusted z-score was inactive: 0. In the case of AGAAAAACACUUUCCGAAATT against TM7SF2, the median seed-adjusted z-score is reported as inactive: -0.674. For CAAUGAACACGGCACGCAATT against UCKL1, the median seed-adjusted z-score was inactive: 0.695. For GCAGGUCAGUUAUCAGACUTT against SLC17A1, the median seed-adjusted z-score was inactive: -0.271. In the case of ACAACAUCCUUUACCUACATT against USP35, the median seed-adjusted z-score is reported as inactive: -0.219. In the case of GACAAGAAGUUUACGCGUUTT against KLF14, the median seed-adjusted z-score is reported as inactive: 0.0241. In the case of GAUACAUGAAGGUAUACAATT against POLR3G, the median seed-adjusted z-score is reported as inactive: -0.485. For CACUGUUUAUGUAUAUGGATT against RHOT1, the median seed-adjusted z-score was inactive: -0.189. For GGAGGAGACAGCAAACGUATT against MAP1A, the median seed-adjusted z-score was inactive: -0.17. In the case of GGUCUCUCCUAAUCCAGAATT against BIN2, the median seed-adjusted z-score is reported as inactive: 0.205. With CAAUAAAGCGUAUCGGAAATT against DNAJC27 the median seed-adjusted z-score was inactive: 0.252. With GGAUUAACAUAUGAUGACATT against ADAM18 the median seed-adjusted z-score was inactive: -0.913. In the case of GCAUUUCGCCUCUUUCACATT against ELAC1, the median seed-adjusted z-score is reported as inactive: 0.967. In the case of CAUCAAUCCCAGAAGAUAATT against ZNF570, the median seed-adjusted z-score is reported as inactive: 0.662. With GGAAGAUGACAACAACUCUTT against CACNA1S the median seed-adjusted z-score was inactive: 0.842. For CCACCAUAGGAUAUGGUUATT against KCNJ16, the median seed-adjusted z-score was inactive: -0.705. For GGUCCGCUACUACCACCAATT against FUT4, the median seed-adjusted z-score was inactive: -0.24. For “CGGUCAGCAGUGUUCGUGATT against ST6GALNAC6”, the median seed-adjusted z-score was inactive: 0.367. In the case of ACUUCAAGCUCCUAAGCCATT against HBA1, the median seed-adjusted z-score is reported as active: -1.03. For GCAGCAAACUUGCCCAGAUTT against PBX2, the median seed-adjusted z-score was inactive: 0.253. With GAGCACGACUGAAAAUGUATT against PTS the median seed-adjusted z-score was inactive: -0.103. With CAAUCAUGUCGAGAAAUAATT against TGIF2LX the median seed-adjusted z-score was inactive: -0.568. In the case of CCCUGUUCUUGACUCGGCATT against ADAM33, the median seed-adjusted z-score is reported as inactive: -0.038. With GGACUGGUGUUGGACAUCATT against ADCY3 the median seed-adjusted z-score was inactive: -0.294. For GCUCUCCAACAAUUACUAUTT against NDUFA7, the median seed-adjusted z-score was inactive: 0.356. For CGAGAAAUUGCACAACCGATT against NACC1, the median seed-adjusted z-score was active: 1.59. In the case of CAUUGAAGUUAGCUAGUGATT against LOC91431, the median seed-adjusted z-score is reported as inactive: 0.0402. In the case of CAAGAGACAUUGUGAUCAUTT against ZNF707, the median seed-adjusted z-score is reported as inactive: -0.119. For AGGCUAUGCUGAGACAUAUTT against PARG, the median seed-adjusted z-score was inactive: 0. With AGAUGAAGCUGGACCUAGATT against TWF2 the median seed-adjusted z-score was inactive: 0.303. For AAUACUUCCUAGAAUCACATT against APTX, the median seed-adjusted z-score was inactive: -0.131. For GGGAAUAUCUCUUCCGACATT against ACTL7A, the median seed-adjusted z-score was active: 1.1. In the case of GCAGUACCAGGACACUAAATT against MSN, the median seed-adjusted z-score is reported as inactive: -0.736. In the case of GGAUCAUUCGUGUACAUCATT against ACVR1, the median seed-adjusted z-score is reported as inactive: -0.217. With CUCAUGAACUUGCACAACATT against WNT7A the median seed-adjusted z-score was inactive: 0.0931. In the case of GAAGUUUUAUGGACCACAATT against UBE2H, the median seed-adjusted z-score is reported as inactive: 0. In the case of GGCAUCUUACUAUAAGUUUTT against SMG6, the median seed-adjusted z-score is reported as inactive: -0.265. For GGAUAAGUAUUCUUACUGUTT against SC5DL, the median seed-adjusted z-score was inactive: -0.439. For GUAUAUAGAAGAACUACAATT against RALGPS2, the median seed-adjusted z-score was inactive: 0.0124. For GGAAACUAUUCACCAGUUATT against TRAF6, the median seed-adjusted z-score was inactive: 0.324. For GGAUCGUUGAUCAGCAUUATT against MAPK4, the median seed-adjusted z-score was inactive: 0.235. In the case of GGAACUUUGCGAUACAUGATT against EIF2AK2, the median seed-adjusted z-score is reported as inactive: 0.419. In the case of CCCAAUAUGUACAACAGUATT against TARSL2, the median seed-adjusted z-score is reported as inactive: 0.361. In the case of AGAAGGUUUUGUUCAGGGATT against PPM1M, the median seed-adjusted z-score is reported as inactive: 0. In the case of AACUGCUCUUUUUACUUUATT against U2AF1L4, the median seed-adjusted z-score is reported as inactive: 0. With GCCUUUCAAUCGGCCCAUUTT against DGAT2L6 the median seed-adjusted z-score was inactive: -0.528. In the case of GUAAGGCAAAGACUCCCUATT against ZNF673, the median seed-adjusted z-score is reported as inactive: 0.419. In the case of GAAACGCAACUAUAUCCUATT against HNRPUL1, the median seed-adjusted z-score is reported as inactive: -0.047. In the case of CCCAAAUUCUGAGACGGCATT against RFX4, the median seed-adjusted z-score is reported as inactive: -0.0226. In the case of GGAAGACAGAUAUGAGGAATT against TPM1, the median seed-adjusted z-score is reported as inactive: 0.659. With GGGACUAAUUUUACGAUAUTT against SLC9A9 the median seed-adjusted z-score was inactive: 0.143. In the case of GAUUUGGUAUCAGCACUAATT against FA2H, the median seed-adjusted z-score is reported as inactive: 0.0497. With CAACAACGCAAGAACCUUUTT against BBX the median seed-adjusted z-score was inactive: -0.0824.
